The target in the assay is T1, M-Phase Phosphoprotein 9 (MPP9), endogenous (human (endogenous in hTERT RPE-1)) (UniProt Q99550).
T1 sequence: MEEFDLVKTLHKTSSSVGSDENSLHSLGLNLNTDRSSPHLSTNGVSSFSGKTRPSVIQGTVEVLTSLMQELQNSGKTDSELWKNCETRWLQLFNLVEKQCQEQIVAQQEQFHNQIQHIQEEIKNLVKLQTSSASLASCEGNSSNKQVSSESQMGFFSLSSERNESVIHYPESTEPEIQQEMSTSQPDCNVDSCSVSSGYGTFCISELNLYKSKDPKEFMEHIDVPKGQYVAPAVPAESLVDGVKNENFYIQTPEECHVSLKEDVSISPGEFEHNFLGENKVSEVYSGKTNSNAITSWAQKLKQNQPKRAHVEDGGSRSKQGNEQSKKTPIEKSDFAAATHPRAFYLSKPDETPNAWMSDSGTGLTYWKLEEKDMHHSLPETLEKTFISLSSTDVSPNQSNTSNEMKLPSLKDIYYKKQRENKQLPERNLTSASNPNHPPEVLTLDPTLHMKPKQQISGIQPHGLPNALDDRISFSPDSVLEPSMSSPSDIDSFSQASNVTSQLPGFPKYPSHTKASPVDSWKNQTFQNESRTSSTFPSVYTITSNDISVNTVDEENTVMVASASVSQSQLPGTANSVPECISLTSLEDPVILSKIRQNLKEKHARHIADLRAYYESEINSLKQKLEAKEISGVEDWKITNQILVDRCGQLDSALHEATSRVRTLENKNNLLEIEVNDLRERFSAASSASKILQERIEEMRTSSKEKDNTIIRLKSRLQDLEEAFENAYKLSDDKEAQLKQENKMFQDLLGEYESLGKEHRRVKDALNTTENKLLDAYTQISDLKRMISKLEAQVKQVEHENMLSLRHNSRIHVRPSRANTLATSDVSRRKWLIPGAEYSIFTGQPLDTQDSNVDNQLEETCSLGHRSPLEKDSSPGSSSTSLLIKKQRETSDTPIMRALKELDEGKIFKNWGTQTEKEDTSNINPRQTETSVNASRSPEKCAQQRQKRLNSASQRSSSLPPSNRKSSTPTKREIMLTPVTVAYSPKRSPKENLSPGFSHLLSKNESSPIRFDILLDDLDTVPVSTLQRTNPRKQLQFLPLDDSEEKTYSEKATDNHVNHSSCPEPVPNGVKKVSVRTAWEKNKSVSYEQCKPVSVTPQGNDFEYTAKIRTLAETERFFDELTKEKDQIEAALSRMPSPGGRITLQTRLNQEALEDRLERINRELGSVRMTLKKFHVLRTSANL
Kind of assay: co-IP; lysates of hTERT RPE-1 cells (ELB buffer: 50 mM HEPES, 250 mM NaCl, 5 mM EDTA, 0.1% NP-40, pH 7.5), anti-MPP9 antibody, Protein G Sepharose, immunoblotting.

No constants are given. Whether binding was seen depends on the method and setting. Binding seen in cells or lysates may run through a third protein. Some binding calls cover weakened binding; strength is not graded here.

B1: Kinesin Family Member 24 (KIF24) (protein, UniProt Q5T7B8 1-1368)
chain: MASWLYECLCEAELAQYYSHFTALGLQKIDELAKITMKDYSKLGVHDMNDRKRLFQLIKIIKIMQEEDKAVSIPERHLQTSSLRIKSQELRSGPRRQLNFDSPADNKDRNASNDGFEMCSLSDFSANEQKSTYLKVLEHMLPDDSQYHTKTGILNATAGDSYVQTEISTSLFSPNYLSAILGDCDIPIIQRISHVSGYNYGIPHSCIRQNTSEKQNPWTEMEKIRVCVRKRPLGMREVRRGEINIITVEDKETLLVHEKKEAVDLTQYILQHVFYFDEVFGEACTNQDVYMKTTHPLIQHIFNGGNATCFAYGQTGAGKTYTMIGTHENPGLYALAAKDIFRQLEVSQPRKHLFVWISFYEIYCGQLYDLLNRRKRLFAREDSKHMVQIVGLQELQVDSVELLLEVILKGSKERSTGATGVNADSSRSHAVIQIQIKDSAKRTFGRISFIDLAGSERAADARDSDRQTKMEGAEINQSLLALKECIRALDQEHTHTPFRQSKLTQVLKDSFIGNAKTCMIANISPSHVATEHTLNTLRYADRVKELKKGIKCCTSVTSRNRTSGNSSPKRIQSSPGALSEDKCSPKKVKLGFQQSLTVAAPGSTRGKVHPLTSHPPNIPFTSAPKVSGKRGGSRGSPSQEWVIHASPVKGTVRSGHVAKKKPEESAPLCSEKNRMGNKTVLGWESRASGPGEGLVRGKLSTKCKKVQTVQPVQKQLVSRVELSFGNAHHRAEYSQDSQRGTPARPASEAWTNIPPHQKEREEHLRFYHQQFQQPPLLQQKLKYQPLKRSLRQYRPPEGQLTNETPPLFHSYSENHDGAQVEELDDSDFSEDSFSHISSQRATKQRNTLENSEDSFFLHQTWGQGPEKQVAERQQSLFSSPRTGDKKDLTKSWVDSRDPINHRRAALDHSCSPSKGPVDWSRENSTSSGPSPRDSLAEKPYCSQVDFIYRQERGGGSSFDLRKDASQSEVSGENEGNLPSPEEDGFTISLSHVAVPGSPDQRDTVTTPLREVSADGPIQVTSTVKNGHAVPGEDPRGQLGTHAEYASGLMSPLTMSLLENPDNEGSPPSEQLVQDGATHSLVAESTGGPVVSHTVPSGDQEAALPVSSATRHLWLSSSPPDNKPGGDLPALSPSPIRQHPADKLPSREADLGEACQSRETVLFSHEHMGSEQYDADAEETGLDGSWGFPGKPFTTIHMGVPHSGPTLTPRTGSSDVADQLWAQERKHPTRLGWQEFGLSTDPIKLPCNSENVTWLKPRPISRCLARPSSPLVPSCSPKTAGTLRQPTLEQAQQVVIRAHQEQLDEMAELGFKEETLMSQLASNDFEDFVTQLDEIMVLKSKCIQSLRSQLQLYLTCHGPTAAPEGTVPS
Consider B1, for which the binding entry was “binds”.

Source of the values: PMC6207757.
